From publication PMC8348959

Legend:
[1] = biological target: T1, sclerostin (mouse) (Mus musculus) (UniProt Q99P68); test: not stated (cited); settings: TBS: 50 mM Tris-Cl pH 7.5, 150 mM NaCl, room temperature, 1 h; BSA-preblocked Ni2+-coated 96-well plate; recombinant protein; label: 3' FAM; single-stranded …
T1 sequence (looked up, limits assumed): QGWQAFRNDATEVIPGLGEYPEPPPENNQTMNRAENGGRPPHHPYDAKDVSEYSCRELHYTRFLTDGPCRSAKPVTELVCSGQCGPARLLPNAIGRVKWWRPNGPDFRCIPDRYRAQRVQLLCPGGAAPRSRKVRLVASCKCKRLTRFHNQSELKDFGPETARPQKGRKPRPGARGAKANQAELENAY

[2] = biological target: T2, sclerostin (recombinant human) (Homo sapiens) (UniProt Q9BQB4); test: fluorescence plate binding assay (immobilized protein, washed); settings: 500 nM aptamer, no compound (aptamer-only control); TBS: 50 mM Tris-Cl pH 7.5, 150 mM NaCl, room temperature, 1 h; BSA-preblocked Ni2+-coated 96-well plate; commercial protein; protein details: N-terminal His; label: 3' FAM; single-stranded DNA
T2 sequence (looked up, limits assumed): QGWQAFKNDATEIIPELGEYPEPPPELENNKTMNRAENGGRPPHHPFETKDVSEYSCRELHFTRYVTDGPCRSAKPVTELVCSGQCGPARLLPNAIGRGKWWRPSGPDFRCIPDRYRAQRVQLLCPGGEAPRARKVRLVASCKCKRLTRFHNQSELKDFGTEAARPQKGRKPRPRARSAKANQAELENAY

With “TTGCGCGTTAATTGGGGGGGTGGGTGGGTT [sclerostin-specific DNA aptamer]” the Kd [1] was 670 nM and the binding result [2] was “binds”.

The exact form of at least one protein or probe is not confirmed. For some assays here: At least one verdict was read from the data and is not stated in words by the source. Where a protein sequence is shown, tags need not be part of it.
